Laboratory results from publication PMC10163288.
The other results are listed elsewhere or left out.

B1: il10ra_site1_sap_20_mot_HHH_b1_06242_af2_000000274_0001_1_18_H_._3cc294eed14fd476e22f76c2ebdda8df_0001_0001_0000300015_0000001_0_0001 (protein)
chain: SSSSDEKAHRIYELLRRVAELHDEGNPEEAREVLEEAKELAEEVNSRLFKWIVEFLEKQLSSSSS
B2: il10ra_site1_normal_mot_HHH_b2_00984_000000042_0001_1_20_H_._HHH_b2_06733_0001_0000500035_0000001_0 (protein)
chain: SSSSSDLEERVEELLEEAEELSKRDPQKALQVLLEAVRIALEISNAELLQELWELIKKIASSSSS
B3: il10ra_site1_normal_mot_8756ee2cf497b5429c717dfc0c0bcfd6_0001_000000186_0001_1_13_H_._HHH_b2_02097_0001_0000100006_0000001_0 (protein)
chain: SSSSDLEEAIELVRRVVELLHEGNVEEARELVEEAEKVVEEAGNDVLRWQLEYLKRLLERDSSSS
B4: il10ra_site1_sap_26_mot_HHH_b1_03314_af2_000000278_0001_42_55_H_._HHH_b2_05136_0002_0000600012_0000001_0_0001_af2pred_0001 (protein)
chain: SSSSSSSEEERAEELFEEFEKAKSEEERRRIFKELLELALKSKDREAARLTARLLKSGSSSSSSS
B5: il10ra_site1_normal_mot_HHH_b2_02375_000000081_0001_1_20_H_._HHH_b1_03982_0001_0000300040_0000001_0 (protein)
chain: SSSSDEAFEIVEKAYREALELLRRGNPEEAEKIVEEAIEEIEKLGNEVAVWALEHLLRQINSSSS
B6: il10ra_site1_sap_23_mot_HHH_b1_05754_000000029_0001_1_19_H_._HHH_b2_00883_0001_0000100008_0000001_0_0001 (protein)
chain: SSSEEEVERLVEEVERVAEEAGDPRARVAARFHANLARWALERNDEEALKQVSFALRVFIRAFSS
B7: il10ra_site1_normal_mot_HHH_b2_02337_000000026_0001_38_52_H_._HHH_b2_03336_0001_0000100004_0000001_0 (protein)
chain: SSSSSSDVEELLEEAEELAERGDPRWSRVLQEAVRHAIELGDAELLREIWELVQEIAKSSSSSSS
B8: il10ra_site1_normal_mot_HHH_b2_00441_000000147_0001_1_18_H_._HHH_b2_04136_0001_0000100001_0000001_0_af2pred_0001 (protein)
chain: SSSSSRDHELLEKTLEFVKFLIEQGDPEAARFLLRAAKQLAERAGDEEIQELLEELEELLNSSSS
B9: il10ra_site1_sap_12_mot_HHH_b2_05214_af2_000000028_0001_22_37_H_._HHH_b2_08161_0001_0000500026_0000002_0_0001 (protein)
chain: SSSSSDVEELLEEARELIEDGDPEEALRVLQEAERFIYRAGDAELLRELWELLEELLREGSSSSS
B10: il10ra_site1_sap_24_mot_HHH_b1_07100_000000193_0001_1_18_H_._HHH_b1_05358_0001_0000200004_0000001_0_0001_af2pred_0001 (protein)
chain: SSSSTTEQLVELALEAAKIALERGDPEKAREILEIAKLLAELANNEELKEKIEELEEEVENSSSS
B11: il10ra_site1_normal_mot_HHH_b2_00475_000000107_0001_44_57_H_._HHH_b1_06566_af2_0001_0000400028_0000001_0 (protein)
chain: SSSSSDEVAQLLFRALRLLYEGNPEEAEEVAREAEELARELGDEELLRYVEILKHFIEAHSSSSS
B12: il10ra_site1_sap_16_mot_HHH_b2_05532_000000217_0001_1_18_H_._HHH_b2_01830_0001_0000200013_0000001_0_0001 (protein)
chain: SSSSSREEVEELLEELERLLEEGDQERFIRLAQEIVQLAIQVSDPELLQALWRLVEEFGRKSSSS
B13: il10ra_site1_sap_21_mot_HHH_b2_01397_000000078_0001_23_39_H_._118502477c40609e6006f550458cdfaf_0001_0001_0000400042_0000002_0_0001 (protein)
chain: SSSSDEEQERLLELLREIFRLALRGDPEEAEKLLKEVHELAEELGDEKAREMVEDLEATLRSSSS
B14: il10ra_site1_normal_mot_HHH_b2_07938_000000207_0001_42_56_H_._HHH_b1_00305_af2_0001_0000200006_0000001_0_af2pred_0001 (protein)
chain: SSSSSSELEEHIEELVEKFGLSEEQQKRLEQLAEALKRRGISEEEIRRILEIMAKLLALGSSSSS
B15: il10ra_site1_normal_mot_HHH_b2_02116_af2_000000165_0001_41_55_H_._HHH_b2_07253_af2_0001_0000300016_0000002_0_af2pred_0001 (protein)
chain: SSSSDAEKEAAELFIRADRLLREGDEEEVEELIRQIKELAEENNDKLIRVLARILEQALGSSSSS
B16: il10ra_site1_sap_17_mot_HHH_b1_05434_000000022_0001_39_52_H_._HHH_b1_07795_af2_0001_0000300012_0000002_0_0001_af2pred_0001 (protein)
chain: SSSSDEEAAHRAFRLVRKALQISDPEEVEELLREAHELAEEANNRLLLRSIEIALKETELSSSSS
B17: il10ra_site1_normal_mot_8756ee2cf497b5429c717dfc0c0bcfd6_0001_000000186_0001_1_13_H_._HHH_b1_06454_0001_0000300028_0000001_0 (protein)
chain: SSSSSSSDVYELLREAAELNHEGNPEEARKVLEEAEELAEELGNDVFRAQIEYMLELASSSSSSS
B18: il10ra_site1_normal_mot_HHH_b2_02337_000000026_0001_38_52_H_._HHH_b1_01900_0001_0000500060_0000001_1 (protein)
chain: SSSSSEDEERVRELLEEAEEYAEQGDPEKVARLLQEATRIALQNQNQELLQLVWKVVKKLASSSS
B19: il10ra_site1_sap_23_mot_0eddeacbb14b769e73e254714f31e2f9_0001_af2_000000203_0001_37_51_H_._HHH_b2_01631_0001_0000100002_0000001_0_0001_af2pred_dldesign_0_af2pre … (protein)
chain: SSSSSPKEEEARRLIAEFRAAAAAGDEARARELYVRAARLIQELGNKDLWAELTAAAVAALSSSS
B20: il10ra_site1_normal_mot_HHH_b2_08186_000000021_0001_43_56_H_._HHH_b1_02914_0001_0000400023_0000001_0 (protein)
chain: SSSSDREERIQELLEEAEELAKEGNPEEAARLLQEAIRLAFELGDEELLKEIWEVLRKVASSSSS
B21: il10ra_site1_sap_18_mot_HHH_b2_01494_af2_000000274_0001_37_50_H_._HHH_b2_08057_0001_0000700022_0000002_0_0001_af2pred_0001 (protein)
chain: SSSSSDEEDERKVEELLEEAERVSREEASELLFKALRIAAELKNEELLRLILEVAIRIVSSSSSS
B22: il10ra_site1_sap_21_mot_HHH_b2_03220_af2_000000223_0001_23_40_H_._HHH_b1_06685_af2_0001_0001000025_0000001_0_0001_af2pred_0001 (protein)
chain: SSSSSDLREELEELLEELKEHGDPELREELRRLLLEAARLALEKNDEELAHLAVEASQLLSSSSS
B23: il10ra_site1_normal_mot_8756ee2cf497b5429c717dfc0c0bcfd6_0001_000000186_0001_1_13_H_._HHH_b2_07537_0001_0000200009_0000001_1 (protein)
chain: SSSSDLSERVMELLRKAAELENEGNPEEAEELLEEAEELARENNNDVLLHNVEYLLRVIQRSSSS
B24: il10ra_site1_normal_mot_HHH_b2_06752_000000207_0001_1_21_H_._HHH_b2_04870_af2_0001_0000500026_0000001_0_af2pred_0001 (protein)
chain: SSSSDVHKEIVEAARLALEVARRLGDEERVKQALRLLKLLAEQLNDEELKEFVEEVEEELSSSSS
B25: il10ra_site1_sap_16_mot_HHH_b2_07488_000000216_0001_1_17_H_._HHH_b1_00459_0001_0000500040_0000001_0_0001 (protein)
chain: SSSSDRRRRVYELLRRAVELDLEGDEEEAEEVLREAQELAEEANNPMMLHQVRFLLEILEGSSSS
B26: il10ra_site1_sap_24_mot_HHH_b1_02809_af2_000000277_0001_40_57_H_._HHH_b1_04583_af2_0001_0000100001_0000001_0_0001_af2pred_0001 (protein)
chain: SSSSSSAEWLVRLALLAVRLLAKAGDPEKAREALEIARRLAEQGNNEELEEEIEKVEEELNSSSS
B27: il10ra_site1_sap_25_mot_HHH_b1_06914_000000280_0001_1_18_H_._HHH_b2_00342_af2_0001_0000400017_0000001_0_0001 (protein)
chain: SSSDLEERVAELLFEALRLLAEGDEEEARELIEEAEHLARERNDEELLRYVEILKRFLESWSSSS
B28: il10ra_site1_sap_19_mot_HHH_b2_07144_000000289_0001_1_18_H_._HHH_b2_05779_0001_0000100016_0000002_0_0001 (protein)
chain: SSSSDRTQEIYELLREAVELHHEGNPEEAEKLLREAEELAEELGNRILEWVIKWLLEKLRQSSSS
B29: il10ra_site1_normal_mot_HHH_b2_00984_000000042_0001_1_20_H_._HHH_b2_07840_0001_0000400040_0000001_0 (protein)
chain: SSSSSSDLEELVEELEEAVREGDTERASQIAQEAVRLAHRLRDQEALQELWRLIQLVASSSSSSS
B30: il10ra_site1_normal_mot_HHH_b2_00984_000000042_0001_1_20_H_._HHH_b2_01469_af2_0001_0000200012_0000002_0 (protein)
chain: SSSSDEEELEEKVKELLEEAKRISDPRERAEVLQRATHHAIELQDAELLQEVWEVIRRLASSSSS
B31: il10ra_site1_normal_mot_HHH_b2_05797_000000294_0001_1_19_H_._HHH_b2_04237_0001_0000100005_0000002_0 (protein)
chain: SSSSDLEEYVRAARRFAEALLEAGDPEAARRILRLLLEVVEREGNEELEELLRELLERVEGSSSS
B32: il10ra_site1_sap_23_mot_HHH_b1_02896_af2_000000065_0001_1_17_H_._HHH_b2_02550_af2_0001_0000300010_0000002_0_0001_af2pred_0001 (protein)
chain: SSSSSDDAERAIRILLRAAKQIEDEERVKLAIRFAEALAESAGNEELVEELRQILEELRSSSSSS
B33: il10ra_site1_sap_29_mot_HHH_b1_01513_af2_000000021_0001_1_16_H_._HHH_b2_01114_0001_0000200011_0000001_0_0001_af2pred_0001 (protein)
chain: SSSSDIHAEAAFRLFKAALEDAHRRGDEEAARAAALAAELSLEYLGNPELAEQLREIVEELSSSS
B34: il10ra_site1_sap_21_mot_HHH_b2_05111_af2_000000002_0001_42_56_H_._HHH_b1_00330_0001_0000200015_0000001_0_0001 (protein)
chain: SSSSSRYERVKKLLEEVLELQRRGNKEEAEELLEELLKELEEAGNPVMLFSVEHLLRIVRDSSSS
B35: il10ra_site1_sap_19_mot_4271555111f650dfcc09ceace45bed71_0001_1_000000133_0001_37_51_H_._a6dc95095f26d3d149f38d2607f81e7c_0001_af2_0001_0000500022_0000001_0_000 … (protein)
chain: SSSSDEEVEEEVERLLEEAEKIEDEHEWAQLLFEAMRLAYENRNEELAEEIDRVAAEWLNSSSSS
B36: il10ra_site1_normal_mot_HHH_b1_00103_000000293_0001_1_15_H_._HHH_b2_03403_0001_0000100001_0000003_0_af2pred_0001 (protein)
chain: SSSSSSSKERKEVLKLLEKALRIDDPEEAREVVQEAVELAEEAGDEHLLKLARELLRQLSSSSSS
B37: il10ra_site1_sap_15_mot_HHH_b1_05757_000000171_0001_42_57_H_._HHH_b1_03576_0001_0000800028_0000001_0_0001 (protein)
chain: SSSSSSDREAFELLEKAAEISREDPEEAEEILREAREIAEEAGNRLLAMQIEFMLKRISSSSSSS

Biological target: il10ra, Q13651
Test: yeast display titration

Apparent Kd, inactive:
B1 no binding seen, B2 no binding seen, B3 no binding seen, B4 no binding seen, B5 no binding seen, B6 no binding seen, B7 no binding seen, B8 no binding seen, B9 no binding seen, B10 no binding seen, B11 no binding seen, B12 no binding seen, B13 no binding seen, B14 no binding seen, B15 no binding seen, B16 no binding seen, B17 no binding seen, B18 no binding seen, B19 no binding seen, B20 no binding seen, B21 no binding seen, B22 no binding seen, B23 no binding seen, B24 no binding seen, B25 no binding seen, B26 no binding seen, B27 no binding seen, B28 no binding seen, B29 no binding seen, B30 no binding seen, B31 no binding seen, B32 no binding seen, B33 no binding seen, B34 no binding seen, B35 no binding seen, B36 no binding seen, B37 no binding seen
